Measurements reported in PubChem BioAssay AID602196 (INSERM, 2012)
Test: 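Knock-downs that protect lung cancer cells from cisplatin or sensitise them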. Cell system: human A549 lung cancer cells. Knock-down reagent: siRNA pair against human genes. Timing: 48 h transfection before cisplatin; time from cisplatin to read-out not stated. Treatment: cisplatin at a dose killing half of control-siRNA cells; exact dose and duration not given. Measurement: 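Cisplatin cell death as a shift from the 50% death seen with control siRNA; siRNAs toxic or growth-blocking alone scored 0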. Direction: two-siRNA summed score (-2 to +2): higher = both siRNAs protect from cisplatin killing; -2 means both sensitise; mean protection from cisplatin (shift in death) and protection from cisplatin (shift in death), siRNA C and protection from cisplatin (shift in death), siRNA D: higher = protection from cisplatin killing. Hit rule: 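Each siRNA scores 0 if harmful alone by LDH or WST-1, otherwise +1 if it reduces and -1 if it increases cisplatin killing; a gene is active when both siRNAs agree (sum +2 or -2)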. Meaning of the calls: active = both siRNAs shift cisplatin killing the same way; inactive = no consistent shift, or siRNA harmful alone.
This is an unselected part of about 23,000 deposited reagents. In the full data, 455 (2%) are marked active. 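Active includes both protection and sensitisation; some change values fall well beyond the stated -50 to +50 range.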 Unmarked entries are inactive. Not stated in the record: the amount of reagent.

| gene | PubChem SID | two-siRNA summed score (-2 to +2) | mean protection from cisplatin (shift in death) (%) | protection from cisplatin (shift in death), siRNA C (%) | protection from cisplatin (shift in death), siRNA D (%) |
| --- | --- | --- | --- | --- | --- |
| LOC144962 | SID131513154 | 0 | 6.3 | 0.4 | 12.2 |
| SATB1 (SATB homeobox 1) | SID131501027 | -1 | -13.2 | -24 | -2.3 |
| USHBP1 (USH1 protein network component harmonin binding protein 1) | SID131509734 | 0 | 2.4 | 12.4 | -7.5 |
| SMG7 (SMG7 nonsense mediated mRNA decay factor) | SID131515249 | 0 | 8.9 | -1 | 18.7 |
| LOC442282 | SID131511852 | 0 | 4.8 | 7.8 | 1.8 |
| JMJD8 (jumonji domain containing 8) | SID131515915 | 0 | 9.9 | 23.4 | -3.6 |
| MICU2 (mitochondrial calcium uptake 2) | SID131502312 | -1 | -3.5 | 7.4 | -14.4 |
| SEMA6C (semaphorin 6C) | SID131520933 | 1 | 11.6 | -6.1 | 29.2 |
| CDKN3 (cyclin dependent kinase inhibitor 3) | SID131513033 | 0 | 6.1 | 12.1 | 0.2 |
| SLC4A5 | SID131517096 | 0 | 12.4 | 15.6 | 9.2 |
| RAPGEF2 (Rap guanine nucleotide exchange factor 2) | SID131509714 | 0 | 2.4 | -4.4 | 9.2 |
| POLD3 (DNA polymerase delta 3, accessory subunit) | SID131512297 | 0 | 5.3 | 1.3 | 9.3 |
| LOC401285 | SID131509912 | 0 | 2.7 | -3.9 | 9.2 |
| DCTN4 (dynactin subunit 4) | SID131509919 | 0 | 2.7 | -0.7 | 6 |
| UBE2Q2P1 (UBE2Q2 pseudogene 1) | SID131509389 | 0 | 2.1 | 6.3 | -2.1 |
| MN1 (MN1 proto-oncogene, transcriptional regulator) | SID131506318 | 0 | -1.7 | -5.8 | 2.4 |
| CPEB2 (cytoplasmic polyadenylation element binding protein 2) | SID131517074 | 0 | 12.3 | 4.5 | 20.2 |
| ZNF426 (zinc finger protein 426) | SID131516374 | 0 | 10.7 | 13.1 | 8.4 |
| THEM4 (thioesterase superfamily member 4) | SID131507604 | 0 | 0.1 | 2.9 | -2.7 |
| CHID1 (chitinase domain containing 1) | SID131506844 | 0 | -0.9 | -9.1 | 7.3 |
| FSCN1 (fascin actin-bundling protein 1) | SID131518374 | 0 | 18.8 | 10.3 | 27.3 |
| MIF (macrophage migration inhibitory factor) | SID131500653 | -1 | -18.4 | -23 | -13.9 |
| OR6T1 (olfactory receptor family 6 subfamily T member 1) | SID131516200 | 0 | 10.4 | 7.9 | 12.9 |
| HTR3D (5-hydroxytryptamine receptor 3D) | SID131507326 | 0 | -0.3 | 0.7 | -1.2 |
| MGC48637 | SID131522684 | 1 | 21.7 | 3.6 | 39.8 |
| GPR19 (G protein-coupled receptor 19) | SID131506492 | 0 | -1.4 | 8.6 | -11.4 |
| ANO10 (anoctamin 10) | SID131508552 | 0 | 1.2 | -2.9 | 5.3 |
| LOC441028 | SID131521875 | 1 | 15.2 | 27.9 | 2.6 |
| DHX33 (DEAH-box helicase 33) | SID131509689 | 0 | 2.4 | 5.7 | -0.9 |
| ARFGEF1 (ARF guanine nucleotide exchange factor 1) | SID131521997 | 1 | 15.8 | 1.7 | 29.9 |
| LOC441991 | SID131516961 | 0 | 12.1 | 13.2 | 10.9 |

The list goes on (2 carried over from the part before).
| gene | PubChem SID | two-siRNA summed score (-2 to +2) | mean protection from cisplatin (shift in death) (%) | protection from cisplatin (shift in death), siRNA C (%) | protection from cisplatin (shift in death), siRNA D (%) |
| --- | --- | --- | --- | --- | --- |
| ARFGEF1 (ARF guanine nucleotide exchange factor 1) | SID131521997 | 1 | 15.8 | 1.7 | 29.9 |
| LOC441991 | SID131516961 | 0 | 12.1 | 13.2 | 10.9 |
| MRPS18B (mitochondrial ribosomal protein S18B) | SID131515703 | 0 | 9.6 | 3.6 | 15.5 |
| MIR99AHG (mir-99a-let-7c cluster host gene) | SID131514884 | 0 | 8.4 | 12.5 | 4.2 |
| STK26 (serine/threonine kinase 26) | SID131522387 | 1 | 18.1 | 41.3 | -5.1 |
| CYP21A2 (cytochrome P450 family 21 subfamily A member 2) | SID131502884 | 0 | -20 | -30.2 | -9.9 |
| CWC25 (CWC25 spliceosome associated protein) | SID131504823 | 0 | -4.4 | -10.3 | 1.5 |
| POLRMT (RNA polymerase mitochondrial) | SID131522321 | 1 | 17.7 | 16.6 | 18.8 |
| TMT1A (thiol methyltransferase 1A) | SID131501716 | -1 | -7.8 | -14 | -1.7 |
| LOC441847 | SID131506570 | 0 | -1.3 | 3.8 | -6.4 |
| ZNF609 (zinc finger protein 609) | SID131504508 | 0 | -5.2 | -6 | -4.4 |
| L3MBTL3 (L3MBTL histone methyl-lysine binding protein 3) | SID131519423 | 1 | 5.5 | -0.3 | 11.3 |
| ALDH18A1 (aldehyde dehydrogenase 18 family member A1) | SID131513341 | 0 | 6.5 | 5 | 8 |
| TST (thiosulfate sulfurtransferase) | SID131510251 | 0 | 3 | -19.4 | 25.5 |
| ETNPPL (ethanolamine-phosphate phospho-lyase) | SID131515017 | 0 | 8.6 | 10.9 | 6.2 |
| ARID4B (AT-rich interaction domain 4B) | SID131507734 | 0 | 0.2 | -13.8 | 14.2 |
| MLXIPL (MLX interacting protein like) | SID131523204 | 2 (active) | 25.8 | 27.4 | 24.3 |
| MIEF2 (mitochondrial elongation factor 2) | SID131512261 | 0 | 5.3 | 14.1 | -3.5 |
| LOC441481 | SID131516487 | 0 | 10.9 | -2.7 | 24.6 |
| MRAP2 (melanocortin 2 receptor accessory protein 2) | SID131506166 | 0 | -1.9 | -6.2 | 2.3 |
| FRMD3 (FERM domain containing 3) | SID131506610 | 0 | -1.2 | -1.7 | -0.8 |
| H2AC7 (H2A clustered histone 7) | SID131504616 | 0 | -4.9 | -8.1 | -1.7 |
| CFAP47 (cilia and flagella associated protein 47) | SID131507320 | 0 | -0.3 | 2.4 | -3 |
| CFAP47 (cilia and flagella associated protein 47) | SID131510185 | 0 | 3 | 7.5 | -1.6 |
| PEMT (phosphatidylethanolamine N-methyltransferase) | SID131510520 | 0 | 3.3 | 6.4 | 0.2 |
| LOC441351 | SID131519860 | 1 | 7.7 | 13.4 | 2.1 |
| FAM53B (family with sequence similarity 53 member B) | SID131501717 | -1 | -7.8 | 2.4 | -18.1 |
| ZPR1 (ZPR1 zinc finger) | SID131510028 | 0 | 2.8 | -3.2 | 8.8 |
| CFL2 (cofilin 2) | SID131500539 | -1 | -22.4 | -19.2 | -25.6 |
| MAP2K1 (mitogen-activated protein kinase kinase 1) | SID131502330 | -1 | -3.4 | 9 | -15.7 |
| IQCH (IQ motif containing H) | SID131505213 | 0 | -3.5 | -5.8 | -1.3 |
| DKFZp434O0320 | SID131510203 | 0 | 3 | 5.3 | 0.7 |
| SPO11 (SPO11 initiator of meiotic double strand breaks) | SID131503146 | 0 | -12.9 | -3.4 | -22.4 |
| MTCL2 (microtubule crosslinking factor 2) | SID131508052 | 0 | 0.6 | 1.7 | -0.6 |
| MTCL2 (microtubule crosslinking factor 2) | SID131509687 | 0 | 2.4 | -2.2 | 7 |
| CAPNS1 (calpain small subunit 1) | SID131503533 | 0 | -9.4 | -18.4 | -0.3 |
| LOC389147 | SID131520171 | 1 | 8.9 | 24.5 | -6.6 |
| LOC387937 | SID131506740 | 0 | -1.1 | 4.1 | -6.2 |
| RASSF7 (Ras association domain family member 7) | SID131502307 | -1 | -3.6 | -19.1 | 12 |
| ZNF641 (zinc finger protein 641) | SID131514503 | 0 | 7.9 | 6.3 | 9.5 |
| HES1 (hes family bHLH transcription factor 1) | SID131509002 | 0 | 1.7 | 0.4 | 3 |
| PPEF2 (protein phosphatase with EF-hand domain 2) | SID131506114 | 0 | -2 | -6.3 | 2.2 |
| CST7 (cystatin F) | SID131521206 | 1 | 12.6 | 24 | 1.2 |
| MAP4 (microtubule associated protein 4) | SID131511953 | 0 | 4.9 | -0.5 | 10.4 |
